No constants are given. Whether binding was seen depends on the method and setting. Binding seen in cells or lysates may run through a third protein. Some results given as binding are weak or reduced against the parent protein; the word gives no strength.
Molecular target: nod-like receptor protein 3 (NLRP3) (human (endogenous in HK2)) (UniProt Q96P20)
Experiment: co-IP; HK2 cells with or without LPS stimulation, homogenized in lysis buffer of the IP/CoIP kit on ice; lysates incubated with selected antibodies at 4 °C overnight, protein A/G agarose beads, washed three times, Western blot

Chains of the proteins cited; added tags and fusions are not shown.
UniProt Q96P20: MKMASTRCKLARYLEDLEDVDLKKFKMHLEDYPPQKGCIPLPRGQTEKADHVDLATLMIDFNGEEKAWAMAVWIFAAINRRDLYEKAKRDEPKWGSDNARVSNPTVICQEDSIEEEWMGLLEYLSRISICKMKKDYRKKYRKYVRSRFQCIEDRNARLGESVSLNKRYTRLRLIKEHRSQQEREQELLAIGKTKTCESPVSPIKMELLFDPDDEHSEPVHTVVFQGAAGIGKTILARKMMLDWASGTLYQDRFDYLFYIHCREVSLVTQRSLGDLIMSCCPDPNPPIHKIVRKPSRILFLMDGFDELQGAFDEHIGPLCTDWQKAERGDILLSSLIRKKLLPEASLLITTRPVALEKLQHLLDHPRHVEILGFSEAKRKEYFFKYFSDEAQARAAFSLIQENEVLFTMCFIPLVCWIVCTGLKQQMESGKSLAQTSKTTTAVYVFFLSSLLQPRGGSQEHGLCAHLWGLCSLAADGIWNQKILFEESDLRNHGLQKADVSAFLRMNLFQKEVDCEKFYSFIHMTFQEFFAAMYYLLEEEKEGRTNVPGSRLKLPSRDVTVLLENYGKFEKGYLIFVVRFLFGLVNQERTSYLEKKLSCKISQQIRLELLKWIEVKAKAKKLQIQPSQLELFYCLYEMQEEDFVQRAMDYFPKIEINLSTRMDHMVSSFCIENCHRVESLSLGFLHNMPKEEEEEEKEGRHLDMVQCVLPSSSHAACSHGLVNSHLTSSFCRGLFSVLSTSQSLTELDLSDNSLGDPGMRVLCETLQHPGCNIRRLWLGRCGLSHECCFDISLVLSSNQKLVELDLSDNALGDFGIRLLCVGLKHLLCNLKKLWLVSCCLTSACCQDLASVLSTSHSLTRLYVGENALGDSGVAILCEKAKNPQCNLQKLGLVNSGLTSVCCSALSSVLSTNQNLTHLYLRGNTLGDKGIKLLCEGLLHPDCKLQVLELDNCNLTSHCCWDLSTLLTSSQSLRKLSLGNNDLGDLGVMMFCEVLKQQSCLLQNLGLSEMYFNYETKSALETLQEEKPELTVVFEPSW

B1: macrophage migration inhibitory factor (MIF) (protein, UniProt P14174 1-115)
chain: MPMFIVNTNVPRASVPDGFLSELTQQLAQATGKPPQYIAVHVVPDQLMAFGGSSEPCALCSLHSIGKIGGAQNRSYSKLLCGLLAERLRISPDRVYINYYDMNAANVGWNNSTFA
For B1, the binding was “binds”.
